Measurements reported in PubChem BioAssay AID504784 (Drosophila RNAi Screening Center, 2011)

Test: 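Genome-wide knock-down for genes giving too much or too little stored lipid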 (primary screen)
Cells: Drosophila Kc167 embryonic cells
Reagents: long dsRNA against Drosophila genes, about 250 ng dsRNA per well
Duration: 4 days
Conditions: cells fed 400 µM oleic acid bound to BSA
Measurement: 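Microscope images give a droplet-to-nucleus area ratio, taken as log and converted to a screen-wide B-score; higher values mean greater lipid storage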
Direction: droplet/nuclear area B-score: higher = more stored lipid (overstorage)
The screen tested about 17,000 reagents; this is a random part of those with a known target gene and a result. 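Each column is one replicate's B-score; the combined score over replicates was not deposited, so single values may mislead.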 Not all columns of the deposit are shown.

| predicted target | DRSC id | droplet/nuclear area B-score, replicate 1 | droplet/nuclear area B-score, replicate 2 |
| --- | --- | --- | --- |
| RpS3 | DRSC16838 | -1.92 | 2.33 |
| CG33124 | DRSC00298 | 1.08 | -0.000375 |
| Tsp42Er | DRSC06183 | -0.443 | -0.0846 |
| wal | DRSC07717 | -0.0476 | 0.197 |
| CG7333 | DRSC16229 | -1.46 | -1.53 |
| Gmap | DRSC19988 | -0.804 | 0.359 |
| Gmap | DRSC20057 | -1.16 | -0.84 |
| Adss | DRSC14162 | 0.453 | 0.052 |
| Cpr49Ab | DRSC05341 | -0.254 | 0.00318 |
| Pgam5 | DRSC18551 | -0.132 | -0.681 |
| CG11597 | DRSC09847 | 0.11 | 2.19 |
| Peritrophin-A | DRSC20570 | 0.00917 | 0.363 |
| Lmx1a | DRSC09726 | 2.46 | 3.41 |
| Lmx1a | DRSC10275 | -1.18 | 0.505 |
| udd | DRSC06720 | -0.629 | 0.621 |
| CG10651 | DRSC02086 | -0.126 | -0.389 |
| BomS1 | DRSC22678 | 1.47 | 3.79 |
| Mco3 | DRSC15926 | -0.329 | 0.137 |
| CG14505 | DRSC06476 | -0.031 | 0.249 |
| CG31647 (retired record) | DRSC21903 | -1.61 | -1.33 |
| Naa30B | DRSC08245 | -0.434 | 0.153 |
| Not11 | DRSC04204 | 0.0173 | 0.19 |
| CG12523 | DRSC09895 | -0.00414 | 0.0614 |
| CG14153 | DRSC10155 | -0.177 | 0.706 |
| CG14153 | DRSC22595 | -1.89 | -1.62 |
| CG1161 | DRSC12180 | 0.148 | 0.559 |
| Crtp | DRSC04604 | -3.1 | -1.15 |
| ND-51L1 | DRSC06072 | -0.707 | 0.355 |
| CG9861 | DRSC04576 | -1.56 | 0.797 |
| CG8202 | DRSC16396 | -0.862 | 0.285 |
| alt | DRSC15315 | -0.152 | 0.849 |
| LManVI | DRSC03224 | 2.99 | -1.24 |
| CG13545 | DRSC04187 | -0.0352 | -0.0932 |
| y | DRSC18853 | 0.0851 | 1.62 |
| Ilp3 | DRSC10168 | -0.378 | -1.52 |
| twr | DRSC12491 | 0.413 | 2.23 |
| Cyp6u1 | DRSC05015 | -0.242 | 0.468 |
| Lcp1Psi | DRSC05105 | -0.313 | -0.495 |
| CG32532 | DRSC19556 | 0.517 | -0.424 |
| CG32532 | DRSC19557 | -0.965 | 0.927 |
| CG32532 | DRSC21370 | -0.305 | -0.385 |
| fray | DRSC16950 | -0.502 | 0.671 |
| Atg18b | DRSC03108 | -1.51 | 1.1 |
| TwdlN | DRSC15813 | 1.34 | 1.98 |
| Ip6k | DRSC04054 | -2.71 | -0.0195 |
| nst | DRSC09755 | 2.14 | -0.978 |
| Rpt4 | DRSC18713 | 0.527 | -0.383 |
| cype | DRSC02356 | 1.34 | 3.04 |
| CG43795 | DRSC04192 | 0.722 | 1.24 |
| CG43795 | DRSC04193 | -0.255 | 0.000593 |
| CG43795 | DRSC04194 | 0.514 | -0.716 |
| CG43795 | DRSC04309 | -2.71 | -1.4 |
| CG43795 | DRSC04310 | -0.884 | -0.0884 |
| CG43795 | DRSC22826 | -0.784 | -0.439 |
| dgt1 | DRSC15301 | 0.0708 | 0.688 |
| CG5506 | DRSC10511 | 0.000143 | 0.0566 |
| 5-HT7 | DRSC12635 | -0.202 | – |
| Lamtor3 | DRSC02815 | 0.266 | 0.128 |
| CG10650 | DRSC02085 | 0.163 | 0.412 |
| Chd64 | DRSC08649 | 0.0823 | 1.57 |
| pho | DRSC17219 | 1.68 | 0.722 |
| CG42553 | DRSC08356 | 1.31 | 1.23 |
| CG4610 | DRSC04477 | -0.407 | 2.43 |
| CG4610 | DRSC22397 | – | -0.00516 |
| CG31693 | DRSC03674 | -1.28 | 0.241 |
| Lam | DRSC03359 | 0.452 | -1.1 |
| pira | DRSC19494 | 1.14 | -0.811 |
| uri | DRSC04111 | 0.211 | 0.132 |
| Cox17 | DRSC20145 | 3.04 | 2.1 |
| Whamy | DRSC14574 | -0.0547 | -1.97 |
| B9d1 | DRSC14993 | 1.09 | 5.29 |
| Tssk | DRSC14784 | 0.85 | -2.94 |
| tei | DRSC07616 | 1.77 | 1.3 |
| CG42784 | DRSC02534 | -0.105 | -0.0319 |
| CG42784 | DRSC02535 | 3.56 | 2.47 |
| CG42784 | DRSC22804 | -0.0914 | -1.94 |
| CG42784 | DRSC23000 | -0.708 | -1.73 |
| Mpcp1 | DRSC07337 | -0.0052 | – |
| norpA | DRSC18806 | 1.59 | – |
| PGRP-LB | DRSC14926 | 1.72 | -0.0282 |
| CG13252 | DRSC11700 | -0.814 | -0.0662 |
| Svil | DRSC08296 | -0.409 | 3.72 |
| Svil | DRSC08332 | -0.638 | -0.0702 |
| Svil | DRSC08333 | 1.45 | 0.619 |
| Svil | DRSC08494 | -1.48 | 0.21 |

Laid out differently: results already given.
pho [DRSC17219]: droplet/nuclear area B-score, replicate 1 = 1.68; droplet/nuclear area B-score, replicate 2 = 0.722
CG42553 [DRSC08356]: droplet/nuclear area B-score, replicate 1 = 1.31; droplet/nuclear area B-score, replicate 2 = 1.23
CG4610 [DRSC04477]: droplet/nuclear area B-score, replicate 1 = -0.407; droplet/nuclear area B-score, replicate 2 = 2.43
CG4610 [DRSC22397]: droplet/nuclear area B-score, replicate 2 = -0.00516
CG31693 [DRSC03674]: droplet/nuclear area B-score, replicate 1 = -1.28; droplet/nuclear area B-score, replicate 2 = 0.241
Lam [DRSC03359]: droplet/nuclear area B-score, replicate 1 = 0.452; droplet/nuclear area B-score, replicate 2 = -1.1
pira [DRSC19494]: droplet/nuclear area B-score, replicate 1 = 1.14; droplet/nuclear area B-score, replicate 2 = -0.811
uri [DRSC04111]: droplet/nuclear area B-score, replicate 1 = 0.211; droplet/nuclear area B-score, replicate 2 = 0.132
